The record followed here is patent publication US20050244906A1, “Detection kit, assay plate to be used therein, detection method, evaluation method, polyclonal antibody of frog vitellogenin and process for producing the same” (priority 2002, published 2005).

The subject of the test is hepatocyte in primary culture of an adult male Xenopus laevis. In kind it is cell-based. As for the experimental part:
According to a method similar to (Example 2-2), primary cultured hepatocytes of an adult male Xenopus laevis were prepared, followed by culturing in a culture liquid containing one of the chemicals, and with a culture liquid after 6 days, according to the ELISA, a VTG concentration in the culture liquid was quantified.
Furthermore, by use of the assay system, the antagonist activity of a target substance could be evaluated.

Turning to `CC(C)(C)CC(C)(C)c1ccc(O)cc1` [OP, octylphenol], the “antagonist activity on VTG synthesis induction due to 5 nM E2” value was “antagonistic activity was exhibited”.
